No constants are given. Whether binding was seen depends on the method and setting. For some assays here: In cells and extracts the contact can be indirect. Some results given as binding are weak or reduced against the parent protein; the word gives no strength.
What was measured:
[1] = target: STAT5 (human) (UniProt P42229); assay: summary legend (FIG. 8h) of the K562 STAT5 experiments
[2] = target: c-Abl (human) (UniProt P00519); assay: NVP-bead chemical precipitation from K562 extract, Western blot
[3] = target: T1, Bcr-Abl (human) (UniProt P11274+P00519); assay: co-immunoprecipitation with H9010 from K562 extract, Western blot
[4] = target: c-Abl (human) (UniProt P00519); assay: as above
[5] = target: T1, Bcr-Abl (human); assay: immuno- and chemical precipitation from K562 extract, Western blot
[6] = target: c-Abl (human) (UniProt P00519); assay: as above
[7] = target: T1, Bcr-Abl (human); assay: PU-H71-bead chemical precipitation from K562 extract, Western blot
[8] = target: T2, HIP (Hsc70-interacting protein) (human) (UniProt P50502); assay: as above
T2 sequence (looked up): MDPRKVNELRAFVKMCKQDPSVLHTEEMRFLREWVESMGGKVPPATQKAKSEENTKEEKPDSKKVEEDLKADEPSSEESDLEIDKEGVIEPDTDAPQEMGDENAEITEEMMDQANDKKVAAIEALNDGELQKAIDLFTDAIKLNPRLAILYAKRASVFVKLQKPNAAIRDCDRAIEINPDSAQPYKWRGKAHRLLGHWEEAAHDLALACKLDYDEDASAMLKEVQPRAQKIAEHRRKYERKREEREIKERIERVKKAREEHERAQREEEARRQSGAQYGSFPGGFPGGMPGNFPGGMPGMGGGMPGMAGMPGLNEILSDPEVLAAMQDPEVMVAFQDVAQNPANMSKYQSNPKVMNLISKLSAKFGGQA

The chains behind the UniProt entries cited, without tags or fusion partners. Where a name states a change or a piece, a line headed by the entry shows the natural chain unless it says otherwise. Residues count along the entry.
UniProt P42229: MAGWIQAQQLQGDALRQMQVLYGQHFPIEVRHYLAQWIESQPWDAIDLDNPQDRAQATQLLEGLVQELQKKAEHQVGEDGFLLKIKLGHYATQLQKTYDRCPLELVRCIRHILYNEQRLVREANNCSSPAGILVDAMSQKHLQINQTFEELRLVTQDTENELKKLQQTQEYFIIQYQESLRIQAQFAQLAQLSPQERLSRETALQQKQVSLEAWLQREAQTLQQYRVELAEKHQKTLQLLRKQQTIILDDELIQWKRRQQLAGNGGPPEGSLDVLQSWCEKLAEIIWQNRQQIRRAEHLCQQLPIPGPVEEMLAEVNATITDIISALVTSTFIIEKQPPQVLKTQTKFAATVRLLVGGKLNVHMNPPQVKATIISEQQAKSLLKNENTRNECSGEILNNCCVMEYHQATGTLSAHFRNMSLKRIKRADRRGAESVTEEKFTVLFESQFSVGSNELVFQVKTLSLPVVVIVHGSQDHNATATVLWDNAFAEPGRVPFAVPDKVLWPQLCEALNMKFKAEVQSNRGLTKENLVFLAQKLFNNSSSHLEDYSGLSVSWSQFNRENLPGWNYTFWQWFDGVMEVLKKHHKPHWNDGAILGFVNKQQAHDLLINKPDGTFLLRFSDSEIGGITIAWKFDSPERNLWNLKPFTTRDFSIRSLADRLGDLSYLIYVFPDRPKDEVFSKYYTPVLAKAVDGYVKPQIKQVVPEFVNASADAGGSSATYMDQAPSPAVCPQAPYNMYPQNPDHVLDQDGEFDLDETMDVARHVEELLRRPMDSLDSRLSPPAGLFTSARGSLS
UniProt P11274: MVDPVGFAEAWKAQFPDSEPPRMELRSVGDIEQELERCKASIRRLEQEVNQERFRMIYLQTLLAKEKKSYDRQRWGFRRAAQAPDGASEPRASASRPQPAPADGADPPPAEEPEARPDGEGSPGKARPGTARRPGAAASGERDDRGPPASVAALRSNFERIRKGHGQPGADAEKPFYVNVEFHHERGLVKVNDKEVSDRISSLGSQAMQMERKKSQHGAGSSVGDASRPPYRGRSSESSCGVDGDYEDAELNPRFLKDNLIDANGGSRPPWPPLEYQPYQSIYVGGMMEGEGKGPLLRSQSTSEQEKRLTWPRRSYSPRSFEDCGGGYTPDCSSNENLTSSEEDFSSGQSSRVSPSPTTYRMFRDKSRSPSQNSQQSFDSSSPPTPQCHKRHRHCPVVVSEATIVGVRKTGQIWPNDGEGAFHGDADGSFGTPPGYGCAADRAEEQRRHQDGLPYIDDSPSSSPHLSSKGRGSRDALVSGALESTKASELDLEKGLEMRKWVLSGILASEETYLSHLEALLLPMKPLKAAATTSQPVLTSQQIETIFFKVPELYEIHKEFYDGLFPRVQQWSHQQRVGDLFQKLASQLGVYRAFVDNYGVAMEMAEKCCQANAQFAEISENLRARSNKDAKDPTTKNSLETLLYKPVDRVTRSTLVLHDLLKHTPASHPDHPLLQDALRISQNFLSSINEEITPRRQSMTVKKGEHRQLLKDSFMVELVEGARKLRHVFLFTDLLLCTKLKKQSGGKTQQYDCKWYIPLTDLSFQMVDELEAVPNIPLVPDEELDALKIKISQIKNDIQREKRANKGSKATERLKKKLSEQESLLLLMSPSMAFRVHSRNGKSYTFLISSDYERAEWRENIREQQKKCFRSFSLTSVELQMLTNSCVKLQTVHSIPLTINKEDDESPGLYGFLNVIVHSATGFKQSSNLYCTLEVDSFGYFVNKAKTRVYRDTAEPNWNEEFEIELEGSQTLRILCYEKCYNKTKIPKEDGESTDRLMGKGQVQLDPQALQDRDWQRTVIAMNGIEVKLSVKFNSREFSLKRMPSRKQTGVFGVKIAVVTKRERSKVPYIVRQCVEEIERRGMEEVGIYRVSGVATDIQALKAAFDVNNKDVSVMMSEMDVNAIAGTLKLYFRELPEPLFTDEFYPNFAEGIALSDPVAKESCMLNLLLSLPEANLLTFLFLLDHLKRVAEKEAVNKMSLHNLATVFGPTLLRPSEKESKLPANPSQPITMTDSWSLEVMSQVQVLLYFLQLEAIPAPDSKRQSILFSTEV
UniProt P46109: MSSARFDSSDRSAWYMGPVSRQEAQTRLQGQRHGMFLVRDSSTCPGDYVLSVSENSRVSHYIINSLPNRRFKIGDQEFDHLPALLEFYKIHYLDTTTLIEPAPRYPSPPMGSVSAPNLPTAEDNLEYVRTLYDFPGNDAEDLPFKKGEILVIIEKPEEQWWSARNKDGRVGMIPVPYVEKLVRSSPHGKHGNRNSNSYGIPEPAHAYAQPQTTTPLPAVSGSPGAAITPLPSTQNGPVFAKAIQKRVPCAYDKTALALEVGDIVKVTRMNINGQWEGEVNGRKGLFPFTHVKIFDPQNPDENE
UniProt Q92608: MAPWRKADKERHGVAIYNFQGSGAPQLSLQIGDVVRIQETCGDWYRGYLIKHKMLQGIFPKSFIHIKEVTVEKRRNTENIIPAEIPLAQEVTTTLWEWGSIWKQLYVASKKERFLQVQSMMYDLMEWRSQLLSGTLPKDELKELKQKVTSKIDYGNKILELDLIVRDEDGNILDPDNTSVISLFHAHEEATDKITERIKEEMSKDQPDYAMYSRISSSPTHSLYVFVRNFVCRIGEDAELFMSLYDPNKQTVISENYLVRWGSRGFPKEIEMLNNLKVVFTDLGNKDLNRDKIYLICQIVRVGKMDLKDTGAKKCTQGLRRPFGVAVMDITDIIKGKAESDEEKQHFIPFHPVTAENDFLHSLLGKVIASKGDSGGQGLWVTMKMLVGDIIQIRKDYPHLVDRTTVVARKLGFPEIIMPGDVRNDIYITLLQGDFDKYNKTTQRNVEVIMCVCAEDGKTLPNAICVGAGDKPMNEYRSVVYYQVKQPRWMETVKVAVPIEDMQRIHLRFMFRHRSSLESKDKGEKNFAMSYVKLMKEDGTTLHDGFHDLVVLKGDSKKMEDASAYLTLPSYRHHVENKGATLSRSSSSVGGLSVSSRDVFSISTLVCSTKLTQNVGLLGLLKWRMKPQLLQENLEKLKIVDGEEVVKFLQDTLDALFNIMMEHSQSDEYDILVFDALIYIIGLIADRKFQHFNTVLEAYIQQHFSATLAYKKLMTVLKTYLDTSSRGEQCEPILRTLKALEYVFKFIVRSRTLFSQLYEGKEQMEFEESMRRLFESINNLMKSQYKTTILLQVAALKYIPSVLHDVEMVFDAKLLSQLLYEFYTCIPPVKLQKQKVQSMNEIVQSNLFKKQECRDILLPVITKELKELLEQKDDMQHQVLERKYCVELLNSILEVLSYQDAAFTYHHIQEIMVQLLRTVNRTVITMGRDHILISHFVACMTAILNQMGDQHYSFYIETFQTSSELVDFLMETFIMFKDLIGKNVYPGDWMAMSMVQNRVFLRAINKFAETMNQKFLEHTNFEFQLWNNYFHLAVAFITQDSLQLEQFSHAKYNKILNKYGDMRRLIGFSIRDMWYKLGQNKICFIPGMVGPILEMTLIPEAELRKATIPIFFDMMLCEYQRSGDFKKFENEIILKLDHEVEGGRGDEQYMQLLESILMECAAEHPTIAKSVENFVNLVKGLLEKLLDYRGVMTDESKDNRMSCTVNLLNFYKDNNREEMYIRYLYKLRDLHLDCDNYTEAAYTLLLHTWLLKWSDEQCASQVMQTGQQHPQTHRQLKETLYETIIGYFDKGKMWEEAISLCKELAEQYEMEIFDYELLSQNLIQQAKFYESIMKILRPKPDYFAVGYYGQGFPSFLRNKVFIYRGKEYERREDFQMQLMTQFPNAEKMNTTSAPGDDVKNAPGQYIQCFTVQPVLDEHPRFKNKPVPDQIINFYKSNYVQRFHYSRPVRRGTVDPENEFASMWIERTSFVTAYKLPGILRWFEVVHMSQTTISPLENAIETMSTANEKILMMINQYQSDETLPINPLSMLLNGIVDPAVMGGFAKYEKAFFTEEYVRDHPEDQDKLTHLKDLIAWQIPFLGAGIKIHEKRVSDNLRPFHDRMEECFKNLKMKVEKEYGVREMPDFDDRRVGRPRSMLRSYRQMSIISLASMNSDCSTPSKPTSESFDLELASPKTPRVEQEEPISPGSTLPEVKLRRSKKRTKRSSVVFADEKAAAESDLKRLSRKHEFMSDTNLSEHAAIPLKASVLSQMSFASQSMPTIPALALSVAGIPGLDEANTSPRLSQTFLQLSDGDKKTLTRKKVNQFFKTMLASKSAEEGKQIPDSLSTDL
UniProt Q05397, residues 2-1052: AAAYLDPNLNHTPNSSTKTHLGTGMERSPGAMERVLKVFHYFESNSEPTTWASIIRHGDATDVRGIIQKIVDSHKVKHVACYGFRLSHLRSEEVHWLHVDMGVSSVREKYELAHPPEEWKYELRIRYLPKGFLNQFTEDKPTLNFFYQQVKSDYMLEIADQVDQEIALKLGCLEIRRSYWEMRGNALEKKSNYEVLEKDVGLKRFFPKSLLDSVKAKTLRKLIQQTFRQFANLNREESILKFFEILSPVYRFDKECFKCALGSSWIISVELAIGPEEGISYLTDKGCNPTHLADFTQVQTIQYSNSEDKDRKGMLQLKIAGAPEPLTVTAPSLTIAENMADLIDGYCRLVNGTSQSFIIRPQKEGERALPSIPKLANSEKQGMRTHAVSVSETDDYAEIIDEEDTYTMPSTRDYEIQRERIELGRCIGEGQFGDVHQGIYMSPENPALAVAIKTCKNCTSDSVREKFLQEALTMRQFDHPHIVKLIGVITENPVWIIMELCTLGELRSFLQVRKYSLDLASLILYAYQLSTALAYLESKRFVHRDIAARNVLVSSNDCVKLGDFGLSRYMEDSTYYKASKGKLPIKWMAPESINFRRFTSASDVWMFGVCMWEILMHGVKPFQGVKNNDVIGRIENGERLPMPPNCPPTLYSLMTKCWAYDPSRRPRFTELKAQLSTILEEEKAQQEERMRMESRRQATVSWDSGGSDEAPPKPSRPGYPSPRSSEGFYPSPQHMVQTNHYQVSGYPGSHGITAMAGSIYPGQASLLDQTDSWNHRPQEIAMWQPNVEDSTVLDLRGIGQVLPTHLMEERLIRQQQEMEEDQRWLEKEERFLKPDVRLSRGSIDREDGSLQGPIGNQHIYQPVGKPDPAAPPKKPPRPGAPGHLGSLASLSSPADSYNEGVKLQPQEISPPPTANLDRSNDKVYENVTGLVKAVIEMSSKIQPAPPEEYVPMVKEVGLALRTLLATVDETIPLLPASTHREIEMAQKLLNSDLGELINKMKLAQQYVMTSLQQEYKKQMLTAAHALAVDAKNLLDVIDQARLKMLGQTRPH
UniProt Q06187, residues 2-659: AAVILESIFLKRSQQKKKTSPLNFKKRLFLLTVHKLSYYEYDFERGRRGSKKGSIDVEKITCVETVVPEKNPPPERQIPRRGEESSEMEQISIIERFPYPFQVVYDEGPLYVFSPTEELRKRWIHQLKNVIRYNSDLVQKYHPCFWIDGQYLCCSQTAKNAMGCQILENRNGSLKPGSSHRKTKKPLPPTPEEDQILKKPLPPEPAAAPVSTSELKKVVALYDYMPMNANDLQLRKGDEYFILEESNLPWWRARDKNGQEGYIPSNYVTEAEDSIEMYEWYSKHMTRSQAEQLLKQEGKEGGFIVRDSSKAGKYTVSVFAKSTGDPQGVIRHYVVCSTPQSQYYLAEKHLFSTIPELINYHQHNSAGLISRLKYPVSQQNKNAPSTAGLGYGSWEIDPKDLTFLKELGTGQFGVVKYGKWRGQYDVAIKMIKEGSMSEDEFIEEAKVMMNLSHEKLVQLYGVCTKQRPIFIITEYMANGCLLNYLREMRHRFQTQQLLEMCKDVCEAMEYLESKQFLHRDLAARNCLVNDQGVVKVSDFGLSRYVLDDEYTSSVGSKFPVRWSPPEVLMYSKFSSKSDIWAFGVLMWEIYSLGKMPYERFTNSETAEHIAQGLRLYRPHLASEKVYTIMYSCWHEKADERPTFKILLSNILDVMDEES

[9] = target: T1, Bcr-Abl (human); assay: PU-H71-bead chemical precipitation from K562 extract, nano LC-MS/MS
[10] = target: WT B-Raf expressed in CCD18Co normal colon fibroblasts (UniProt P15056); assay: co-immunoprecipitation with H9010 from CCD18Co extract, Western blot
[11] = target: T1, Bcr-Abl (human); assay: PU-H71-bead chemical precipitation from K562 extract; MS, Western blot
[12] = target: CRKL (human) (UniProt P46109); assay: as above
[13] = target: DOCK (human) (UniProt Q92608); assay: as above
[14] = target: T3, EPS15 (human) (UniProt P42566); assay: as above
T3 sequence (looked up): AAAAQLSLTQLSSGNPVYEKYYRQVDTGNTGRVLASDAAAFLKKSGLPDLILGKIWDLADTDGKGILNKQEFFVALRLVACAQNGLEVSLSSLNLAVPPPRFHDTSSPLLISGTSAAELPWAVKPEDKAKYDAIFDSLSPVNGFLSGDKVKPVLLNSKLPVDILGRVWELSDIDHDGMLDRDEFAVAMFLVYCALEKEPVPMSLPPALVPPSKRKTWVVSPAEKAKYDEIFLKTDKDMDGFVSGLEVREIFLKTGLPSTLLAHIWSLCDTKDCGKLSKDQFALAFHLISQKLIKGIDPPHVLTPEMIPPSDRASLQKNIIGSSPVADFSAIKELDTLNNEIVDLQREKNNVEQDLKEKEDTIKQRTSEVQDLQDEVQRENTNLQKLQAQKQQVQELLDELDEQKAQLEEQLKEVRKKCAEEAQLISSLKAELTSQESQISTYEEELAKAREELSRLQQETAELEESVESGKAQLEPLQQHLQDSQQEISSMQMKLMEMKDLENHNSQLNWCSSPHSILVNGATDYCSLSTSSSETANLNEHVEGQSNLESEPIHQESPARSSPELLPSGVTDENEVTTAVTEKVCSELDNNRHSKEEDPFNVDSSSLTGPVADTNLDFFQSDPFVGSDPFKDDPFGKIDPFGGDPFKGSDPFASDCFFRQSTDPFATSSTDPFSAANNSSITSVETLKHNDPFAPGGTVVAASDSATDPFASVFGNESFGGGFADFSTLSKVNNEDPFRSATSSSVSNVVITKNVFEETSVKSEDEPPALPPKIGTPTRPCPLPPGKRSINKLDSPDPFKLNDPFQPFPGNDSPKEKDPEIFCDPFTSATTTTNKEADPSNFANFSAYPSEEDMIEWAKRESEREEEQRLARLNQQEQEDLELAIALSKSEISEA

[15] = target: FAK (human) (UniProt Q05397); assay: as above
[16] = target: GRB2 (human) (UniProt P62993); assay: as above
[17] = target: T4, PKD2 (or PRKD2) (human) (UniProt Q9BZL6); assay: as above
T4 sequence (looked up): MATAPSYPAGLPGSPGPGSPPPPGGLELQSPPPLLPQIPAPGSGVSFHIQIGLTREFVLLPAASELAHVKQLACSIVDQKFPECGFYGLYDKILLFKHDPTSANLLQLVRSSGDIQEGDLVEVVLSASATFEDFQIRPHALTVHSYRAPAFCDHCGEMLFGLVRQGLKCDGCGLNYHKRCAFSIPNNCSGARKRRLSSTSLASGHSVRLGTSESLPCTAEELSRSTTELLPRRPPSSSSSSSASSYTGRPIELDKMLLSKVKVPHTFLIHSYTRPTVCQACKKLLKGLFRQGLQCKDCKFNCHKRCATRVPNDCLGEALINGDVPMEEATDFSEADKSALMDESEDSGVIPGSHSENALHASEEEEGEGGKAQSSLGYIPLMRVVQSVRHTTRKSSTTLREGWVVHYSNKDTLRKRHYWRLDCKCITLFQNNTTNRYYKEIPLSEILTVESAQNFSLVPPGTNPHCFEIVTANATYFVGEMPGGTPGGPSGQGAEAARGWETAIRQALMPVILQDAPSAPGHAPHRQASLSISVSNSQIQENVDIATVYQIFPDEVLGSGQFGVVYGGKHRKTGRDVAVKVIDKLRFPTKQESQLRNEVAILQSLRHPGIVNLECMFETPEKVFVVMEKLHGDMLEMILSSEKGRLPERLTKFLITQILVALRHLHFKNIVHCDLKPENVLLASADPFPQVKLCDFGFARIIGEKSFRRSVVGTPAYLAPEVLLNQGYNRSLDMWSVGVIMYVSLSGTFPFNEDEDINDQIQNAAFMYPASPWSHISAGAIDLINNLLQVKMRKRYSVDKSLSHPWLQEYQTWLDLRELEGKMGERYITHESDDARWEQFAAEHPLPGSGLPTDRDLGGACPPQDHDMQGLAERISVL

[18] = target: T5, vav (human) (UniProt P15498); assay: as above
T5 sequence (looked up): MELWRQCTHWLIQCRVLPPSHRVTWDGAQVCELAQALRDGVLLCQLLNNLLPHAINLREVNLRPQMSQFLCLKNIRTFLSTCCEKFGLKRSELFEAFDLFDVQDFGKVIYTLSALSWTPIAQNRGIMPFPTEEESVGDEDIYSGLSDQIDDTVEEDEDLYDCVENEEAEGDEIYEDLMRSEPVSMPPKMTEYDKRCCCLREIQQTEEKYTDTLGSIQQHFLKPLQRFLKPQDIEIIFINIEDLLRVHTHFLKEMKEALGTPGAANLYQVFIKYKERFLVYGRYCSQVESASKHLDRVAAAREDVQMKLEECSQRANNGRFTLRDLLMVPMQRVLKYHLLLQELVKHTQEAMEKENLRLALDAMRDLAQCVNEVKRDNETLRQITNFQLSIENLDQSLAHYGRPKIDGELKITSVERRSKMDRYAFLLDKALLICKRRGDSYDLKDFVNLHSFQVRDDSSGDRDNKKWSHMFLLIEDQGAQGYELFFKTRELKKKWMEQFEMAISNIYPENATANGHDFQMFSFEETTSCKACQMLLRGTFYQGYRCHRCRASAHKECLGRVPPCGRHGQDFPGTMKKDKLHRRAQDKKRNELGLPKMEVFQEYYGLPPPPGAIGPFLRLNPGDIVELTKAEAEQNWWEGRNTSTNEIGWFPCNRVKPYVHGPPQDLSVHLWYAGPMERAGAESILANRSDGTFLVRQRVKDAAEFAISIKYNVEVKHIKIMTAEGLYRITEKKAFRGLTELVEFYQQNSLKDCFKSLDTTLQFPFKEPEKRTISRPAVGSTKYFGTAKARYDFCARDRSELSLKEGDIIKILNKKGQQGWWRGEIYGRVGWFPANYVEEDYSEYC

[19] = target: IGF-IR (UniProt P08069); assay: PU-H71-bead chemical precipitation from MDA-MB-468 extract, Western blot
[20] = target: c-Kit (UniProt P10721); assay: as above
[21] = target: Bruton agammaglobulinemia tyrosine kinase (BTK) (human) (UniProt Q06187); assay: PU-H71-bead chemical precipitation from DLBCL cell lysates, Western blot
[22] = target: T1, Bcr-Abl (human); assay: sequential chemical and immuno-precipitation from K562 extract, Western blot
[23] = target: c-Abl (human) (UniProt P00519); assay: as above
[24] = target: mutant B-Raf expressed in SKMel28 melanoma cells (UniProt P15056); assay: PU-H71- and GM-bead chemical precipitation from SKMel28 extract, Western blot
[25] = target: T1, Bcr-Abl (human); assay: SNX-, NVP- and GM-bead chemical precipitation from K562 extract, Western blot
[26] = target: IGF-IR (UniProt P08069); assay: PU-H71-bead chemical precipitation from MDA-MB-468 extract (300 µg), Western blot
[27] = target: c-Kit (UniProt P10721); assay: as above
[28] = target: FAK (human) (UniProt Q05397); assay: PU-H71-bead chemical precipitation from K562 extract; nano LC-MS/MS, Western blot
[29] = target: Bruton agammaglobulinemia tyrosine kinase (BTK) (human) (UniProt Q06187); assay: PU-H71-bead chemical precipitation from OCI-Ly1 and OCI-Ly7 extracts, Western blot
[30] = target: c-Abl (human) (UniProt P00519); assay: co-immunoprecipitation with H9010 from PU-bead-depleted K562 extract, Western blot
[31] = target: STAT5 (human) (UniProt P42229); assay: PU-H71-bead chemical precipitation from K562 versus Mia-PaCa-2 extracts; nano LC-MS/MS
[32] = target: HER3 (UniProt P21860); assay: PU-H71- and GM-bead precipitation of Hsp90 complexes from MDA-MB-468 extract, Western blot
[33] = target: mutant B-Raf expressed in SKMel28 melanoma cells (UniProt P15056); assay: co-immunoprecipitation with H9010 and PU-/GM-bead precipitation from SKMel28 extract, Western blot
[34] = target: Bruton agammaglobulinemia tyrosine kinase (BTK) (human) (UniProt Q06187); assay: PU-H71-bead chemical precipitation from K562 and primary CML extracts; nano LC-MS/MS, Western blot
[35] = target: T4, PKD2 (or PRKD2) (human); assay: as above
[36] = target: STAT5 (human) (UniProt P42229); assay: as above
[37] = target: T5, vav (human); assay: as above
[38] = target: p-STAT5 (human) (UniProt P42229); assay: sequential PU-H71-bead chemical precipitation from K562 cells, pull-downs and remaining supernatant by Western blot

binding [1]: binds | binding [2]: binds | binding [3]: binds | binding [4]: binds | binding [5]: binds | binding [6]: binds | binding [7]: binds | binding [8]: binds | binding [9]: binds | binding [10]: binds | binding [11]: binds | binding [12]: binds | binding [13]: binds | binding [14]: binds | binding [15]: binds | binding [16]: binds | binding [17]: binds | binding [18]: binds | binding [19]: binds | binding [20]: binds | binding [21]: binds | binding [22]: binds | binding [23]: binds | binding [24]: binds | binding [25]: binds | binding [26]: binds | binding [27]: binds | binding [28]: binds | binding [29]: binds | binding [30]: binds | binding [31]: binds | binding [32]: binds | binding [33]: binds | binding [34]: binds | binding [35]: binds | binding [36]: binds | binding [37]: binds | binding [38]: binds
Substance: heat shock protein 90 (Hsp90), endogenous, in human cancer and normal cell extracts (from UniProt P07900 2-732)
